The values that follow come from paper PMC4865869.

Sequences of proteins named here, by UniProt entry; tags and fusion partners are left off.
UniProt P18613: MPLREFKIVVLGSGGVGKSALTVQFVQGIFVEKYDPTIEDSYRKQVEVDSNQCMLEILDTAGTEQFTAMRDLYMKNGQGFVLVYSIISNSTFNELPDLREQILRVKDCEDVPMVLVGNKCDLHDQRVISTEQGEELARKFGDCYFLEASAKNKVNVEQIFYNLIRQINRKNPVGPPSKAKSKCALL

In assay [1] the target is T1, His/Flag-tagged Pianissimo (Dictyostelium) (UniProt O77203).
T1 sequence: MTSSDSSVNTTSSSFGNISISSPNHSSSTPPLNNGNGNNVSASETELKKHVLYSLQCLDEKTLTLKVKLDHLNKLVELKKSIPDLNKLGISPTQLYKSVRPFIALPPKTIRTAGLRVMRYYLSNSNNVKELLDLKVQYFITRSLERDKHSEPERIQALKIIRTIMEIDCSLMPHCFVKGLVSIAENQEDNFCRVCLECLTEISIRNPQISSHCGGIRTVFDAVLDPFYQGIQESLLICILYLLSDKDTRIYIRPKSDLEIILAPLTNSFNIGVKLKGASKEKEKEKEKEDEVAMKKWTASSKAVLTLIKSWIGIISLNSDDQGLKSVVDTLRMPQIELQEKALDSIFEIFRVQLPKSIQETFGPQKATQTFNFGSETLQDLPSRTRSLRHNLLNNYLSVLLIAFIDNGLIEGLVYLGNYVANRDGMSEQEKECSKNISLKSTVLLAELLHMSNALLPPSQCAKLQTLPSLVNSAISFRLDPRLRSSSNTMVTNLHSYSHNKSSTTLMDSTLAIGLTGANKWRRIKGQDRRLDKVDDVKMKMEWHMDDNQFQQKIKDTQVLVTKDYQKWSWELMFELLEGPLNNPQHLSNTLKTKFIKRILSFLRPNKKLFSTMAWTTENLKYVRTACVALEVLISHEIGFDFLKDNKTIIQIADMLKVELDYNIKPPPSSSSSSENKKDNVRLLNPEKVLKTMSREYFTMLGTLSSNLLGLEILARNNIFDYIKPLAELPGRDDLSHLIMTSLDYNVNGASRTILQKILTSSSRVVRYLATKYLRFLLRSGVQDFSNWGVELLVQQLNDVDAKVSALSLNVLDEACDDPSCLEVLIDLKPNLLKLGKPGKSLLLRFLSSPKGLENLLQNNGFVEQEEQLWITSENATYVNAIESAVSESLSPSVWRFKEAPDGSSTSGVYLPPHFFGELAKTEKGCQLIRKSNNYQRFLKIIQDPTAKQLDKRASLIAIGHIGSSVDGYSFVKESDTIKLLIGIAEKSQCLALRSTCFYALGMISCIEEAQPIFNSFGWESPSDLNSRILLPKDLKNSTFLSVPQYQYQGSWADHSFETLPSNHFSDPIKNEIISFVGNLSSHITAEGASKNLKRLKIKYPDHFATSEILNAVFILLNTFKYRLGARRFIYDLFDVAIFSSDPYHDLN
The assay is described as follows: affinity purification with mass spectrometry; sequential His-Flag purification of HF-Pia from developed piaA null cells stimulated with 10 uM cAMP for 10 sec; wild-type cells as control.

Assay [2] addresses T1, His/Flag-tagged Pianissimo (Dictyostelium). The assay is described as above. This is another data set of the same source.

Read-outs that look alike come from different tables or passages of the source. Results are given in words; binding and its absence hold for the method and conditions named. In cells and extracts the contact can be indirect. A yes stands for co-enrichment or nearness to the bait. Other partners may have been found. Where a sequence is shown, tags or fusion partners need not be part of it.

In the case of Formin A (Dictyostelium), in assay [1], the binding result is “binds”. For the molecule Rac1A (from UniProt P34144 1-194), in assay [1], the binding entry is reported as “binds”. For “Rap1 (small GTPase), co-purified with HF-Pia (from UniProt P18613 1-186)”, the binding entry in assay [1] is “binds”.

B1: Rab11A (protein, UniProt P36412 1-214)
chain: MTSKGSQEEYDYLYKIVLIGDSGVGKSNLLSRFTRNEFSLETKSTIGVEFATRTIQTEGKTIKAQVWDTAGQERYRAITSAYYRGAVGALLVYDIAKQATYKSVERWILELRENADRNIEIMLVGNKSDLRHLREVSTDEAKEFSEKHKLTFIETSALDSSNVELAFQNILTQIYHIMSRPSHSTGPQTTIDSNTETIILPTTSEPPAAKSGCC
For B1, in assay [2], the binding entry is on record as “binds”.

B2: RabC (protein, UniProt P34143 1-196)
chain: MEEEILYKIILVGESGVGKSSILVRFTDNTFSQHFAPTLGVDFNVKTIRNKETGQTVKLQLWDTAGQERFKSITQTFYRGSHGVIVVYDVTDPKSFERCKNWVEDINQYTQDGMIIILVGNKSDMVAQRKVTFEQGQEMAEQLKTKFLEVSAKENNGVTQVFDLLVQDIEATMKNSKVAQNQLNLNSEVGQKRGCC
Take B2: the binding entry in assay [2] is “binds”.
